Data source: PubChem BioAssay AID1671195 (Yale University, 2021)

- Aim: 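Regulators of LDL receptor activity judged by labelled LDL uptake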 (primary screen)
- System: human Huh7 hepatoma cells
- Reagents: siRNA pool against human genes, 18 nM
- Timing: about 2 to 2.5 days of knockdown, then 8 h LDL uptake
- Conditions: DiI-labelled LDL at 30 µg/ml for 8 h, in lipoprotein-deficient serum medium
- Read-out: 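Per-cell DiI-LDL intensity by automated imaging; well means scaled to the plate median and given as a robust z-score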
- Direction: robust z-score: higher = more LDL uptake after knockdown
- Call rule: 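Active when two or more replicates show a robust z-score above 2 or below -2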
Shown is an unselected part of about 22,000 reagents. About 1,510 of them (6.9%) count as active. 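Active includes knockdowns raising or lowering LDL uptake; positive z-scores mean more uptake, negative mean less.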

With SLC26A8 (GeneID 116369), how do the results read?
robust z-score, replicate 1: -0.6; robust z-score, replicate 2: -1.01; robust z-score, replicate 3: -0.176; activity call: inactive

With MRE11 (GeneID 4361), what does the deposit list?
robust z-score, replicate 1: 0.352; robust z-score, replicate 2: 0.599; robust z-score, replicate 3: 0.077; activity call: inactive

Which result is listed for SH3PXD2B (GeneID 285590)?
robust z-score, replicate 1: 0.126; robust z-score, replicate 2: -0.081; robust z-score, replicate 3: -0.0367; activity call: inactive

Which result is listed for LBX1 (GeneID 10660)?
robust z-score, replicate 1: -1.47; robust z-score, replicate 2: -1.31; robust z-score, replicate 3: -1.09; activity call: inactive

How did the screen score CYLC2 (GeneID 1539)?
robust z-score, replicate 1: 0.933; robust z-score, replicate 2: 0.478; robust z-score, replicate 3: 0.799; activity call: inactive

For MKI67 (GeneID 4288), what was measured?
robust z-score, replicate 1: 1.12; robust z-score, replicate 2: -0.443; robust z-score, replicate 3: 1.06; activity call: inactive

How did the screen score LOC440984 (retired record) (GeneID 440984)?
robust z-score, replicate 1: 1.12; robust z-score, replicate 2: 1.1; robust z-score, replicate 3: 0.805; activity call: inactive

With SRPK2 (GeneID 6733), what does the deposit list?
robust z-score, replicate 1: 0.281; robust z-score, replicate 2: 0.435; robust z-score, replicate 3: 0.383; activity call: inactive

For GDPD2 (GeneID 54857), how do the results read?
robust z-score, replicate 1: 1.47; robust z-score, replicate 2: 0.239; robust z-score, replicate 3: 1.02; activity call: inactive

For LINC02028 (GeneID 285389), what does the deposit list?
robust z-score, replicate 1: 0.475; robust z-score, replicate 2: 1.05; robust z-score, replicate 3: 1; activity call: inactive

What did the screen give for ZNF322 (GeneID 79692)?
robust z-score, replicate 1: 0.392; robust z-score, replicate 2: 0.381; robust z-score, replicate 3: 0.472; activity call: inactive

With NAV3 (GeneID 89795), what was measured?
robust z-score, replicate 1: -0.47; robust z-score, replicate 2: -0.587; robust z-score, replicate 3: -0.577; activity call: inactive

What is on record for RABL3 (GeneID 285282)?
robust z-score, replicate 1: 1.71; robust z-score, replicate 2: 1.57; robust z-score, replicate 3: 0.805; activity call: inactive

With SLC4A9 (GeneID 83697), what was measured?
robust z-score, replicate 1: -1.19; robust z-score, replicate 2: -1.11; robust z-score, replicate 3: -0.909; activity call: inactive

Which result is listed for VCPIP1 (GeneID 80124)?
robust z-score, replicate 1: 0.526; robust z-score, replicate 2: -0.546; robust z-score, replicate 3: 0.122; activity call: inactive

Quoted from above for reference:
SRPK2 (GeneID 6733): robust z-score, replicate 1 = 0.281; robust z-score, replicate 2 = 0.435; robust z-score, replicate 3 = 0.383; activity call = inactive
GDPD2 (GeneID 54857): robust z-score, replicate 1 = 1.47; robust z-score, replicate 2 = 0.239; robust z-score, replicate 3 = 1.02; activity call = inactive
LINC02028 (GeneID 285389): robust z-score, replicate 1 = 0.475; robust z-score, replicate 2 = 1.05; robust z-score, replicate 3 = 1; activity call = inactive
ZNF322 (GeneID 79692): robust z-score, replicate 1 = 0.392; robust z-score, replicate 2 = 0.381; robust z-score, replicate 3 = 0.472; activity call = inactive

Additional results:
For LOC441097 (retired record) (GeneID 441097), how do the results read?
robust z-score, replicate 1: 0.632; robust z-score, replicate 2: 0.521; robust z-score, replicate 3: 0.687; activity call: inactive

Which result is listed for DYNC1H1 (GeneID 1778)?
robust z-score, replicate 1: -0.656; robust z-score, replicate 2: -0.42; robust z-score, replicate 3: -0.417; activity call: inactive

Which result is listed for PID1 (GeneID 55022)?
robust z-score, replicate 1: 1.21; robust z-score, replicate 2: 1.83; robust z-score, replicate 3: 1.55; activity call: inactive

Which result is listed for RTF2 (GeneID 51507)?
robust z-score, replicate 1: -1.95; robust z-score, replicate 2: -0.397; robust z-score, replicate 3: -2.44; activity call: active

How did the screen score DENND5A (GeneID 23258)?
robust z-score, replicate 1: 0.378; robust z-score, replicate 2: -0.435; robust z-score, replicate 3: 1.07; activity call: inactive

Which result is listed for RBFOX1 (GeneID 54715)?
robust z-score, replicate 1: -1.01; robust z-score, replicate 2: -0.542; robust z-score, replicate 3: -0.225; activity call: inactive

With XRN2 (GeneID 22803), what does the deposit list?
robust z-score, replicate 1: -1.26; robust z-score, replicate 2: -1.8; robust z-score, replicate 3: -1.94; activity call: inactive

For UBE2K (GeneID 3093), what was measured?
robust z-score, replicate 1: 0.0302; robust z-score, replicate 2: 1.52; robust z-score, replicate 3: 0.341; activity call: inactive

How did the screen score CEACAM6 (GeneID 4680)?
robust z-score, replicate 1: 1.17; robust z-score, replicate 2: 0.856; robust z-score, replicate 3: 1.15; activity call: inactive
